This is one part of the list. Most values lie at the level of the controls, where differences are scatter.
Each target was assayed with CN[C@@H]1C[C@H]2O[C@@](C)([C@@H]1OC)n1c3ccccc3c3c4c(c5c6ccccc6n2c5c31)C(=O)NC4 [staurosporine] (assay: log2 fold change of tryptic peptide abundance, ligand vs vehicle (limited proteolysis) (log2 ratio); higher = more trypsin-susceptible (destabilized)). Settings: ligand concentration: 20 uM; sample: K562 cleared lysate; digestion: 4 min, 22 C (HT-PELSA RT4min, Orbitrap Astral).

Sequences of proteins named here, by UniProt entry; tags and fusion partners are left off. A change or cut given only in a name is not applied to a line headed by its entry.
UniProt Q96PG8: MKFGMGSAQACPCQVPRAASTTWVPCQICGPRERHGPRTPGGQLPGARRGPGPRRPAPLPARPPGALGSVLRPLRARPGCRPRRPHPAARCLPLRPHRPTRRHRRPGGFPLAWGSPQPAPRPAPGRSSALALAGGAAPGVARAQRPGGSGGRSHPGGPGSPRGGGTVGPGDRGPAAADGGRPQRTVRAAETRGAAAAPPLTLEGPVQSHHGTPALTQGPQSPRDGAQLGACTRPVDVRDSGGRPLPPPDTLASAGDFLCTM
UniProt Q96K37: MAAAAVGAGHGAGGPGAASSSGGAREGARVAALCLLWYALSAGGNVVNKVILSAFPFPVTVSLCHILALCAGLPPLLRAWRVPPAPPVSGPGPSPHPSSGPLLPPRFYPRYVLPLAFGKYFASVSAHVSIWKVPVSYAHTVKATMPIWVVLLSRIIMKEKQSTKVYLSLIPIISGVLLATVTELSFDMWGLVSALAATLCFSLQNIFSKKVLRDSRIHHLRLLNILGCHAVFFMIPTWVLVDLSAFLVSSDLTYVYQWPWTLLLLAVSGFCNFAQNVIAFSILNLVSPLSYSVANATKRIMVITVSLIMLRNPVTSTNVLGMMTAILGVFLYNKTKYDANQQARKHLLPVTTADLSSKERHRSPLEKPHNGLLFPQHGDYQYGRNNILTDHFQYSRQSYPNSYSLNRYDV
UniProt Q96MG8: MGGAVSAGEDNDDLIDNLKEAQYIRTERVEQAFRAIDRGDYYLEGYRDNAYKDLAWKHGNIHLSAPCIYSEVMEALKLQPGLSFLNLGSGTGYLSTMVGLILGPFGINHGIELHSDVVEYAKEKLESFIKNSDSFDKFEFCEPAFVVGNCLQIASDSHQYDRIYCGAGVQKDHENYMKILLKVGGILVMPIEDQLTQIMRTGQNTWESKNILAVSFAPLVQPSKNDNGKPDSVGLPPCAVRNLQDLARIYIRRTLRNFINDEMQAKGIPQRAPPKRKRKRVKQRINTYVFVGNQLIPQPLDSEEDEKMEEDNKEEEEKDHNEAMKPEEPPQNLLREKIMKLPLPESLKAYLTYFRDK
UniProt Q96N67: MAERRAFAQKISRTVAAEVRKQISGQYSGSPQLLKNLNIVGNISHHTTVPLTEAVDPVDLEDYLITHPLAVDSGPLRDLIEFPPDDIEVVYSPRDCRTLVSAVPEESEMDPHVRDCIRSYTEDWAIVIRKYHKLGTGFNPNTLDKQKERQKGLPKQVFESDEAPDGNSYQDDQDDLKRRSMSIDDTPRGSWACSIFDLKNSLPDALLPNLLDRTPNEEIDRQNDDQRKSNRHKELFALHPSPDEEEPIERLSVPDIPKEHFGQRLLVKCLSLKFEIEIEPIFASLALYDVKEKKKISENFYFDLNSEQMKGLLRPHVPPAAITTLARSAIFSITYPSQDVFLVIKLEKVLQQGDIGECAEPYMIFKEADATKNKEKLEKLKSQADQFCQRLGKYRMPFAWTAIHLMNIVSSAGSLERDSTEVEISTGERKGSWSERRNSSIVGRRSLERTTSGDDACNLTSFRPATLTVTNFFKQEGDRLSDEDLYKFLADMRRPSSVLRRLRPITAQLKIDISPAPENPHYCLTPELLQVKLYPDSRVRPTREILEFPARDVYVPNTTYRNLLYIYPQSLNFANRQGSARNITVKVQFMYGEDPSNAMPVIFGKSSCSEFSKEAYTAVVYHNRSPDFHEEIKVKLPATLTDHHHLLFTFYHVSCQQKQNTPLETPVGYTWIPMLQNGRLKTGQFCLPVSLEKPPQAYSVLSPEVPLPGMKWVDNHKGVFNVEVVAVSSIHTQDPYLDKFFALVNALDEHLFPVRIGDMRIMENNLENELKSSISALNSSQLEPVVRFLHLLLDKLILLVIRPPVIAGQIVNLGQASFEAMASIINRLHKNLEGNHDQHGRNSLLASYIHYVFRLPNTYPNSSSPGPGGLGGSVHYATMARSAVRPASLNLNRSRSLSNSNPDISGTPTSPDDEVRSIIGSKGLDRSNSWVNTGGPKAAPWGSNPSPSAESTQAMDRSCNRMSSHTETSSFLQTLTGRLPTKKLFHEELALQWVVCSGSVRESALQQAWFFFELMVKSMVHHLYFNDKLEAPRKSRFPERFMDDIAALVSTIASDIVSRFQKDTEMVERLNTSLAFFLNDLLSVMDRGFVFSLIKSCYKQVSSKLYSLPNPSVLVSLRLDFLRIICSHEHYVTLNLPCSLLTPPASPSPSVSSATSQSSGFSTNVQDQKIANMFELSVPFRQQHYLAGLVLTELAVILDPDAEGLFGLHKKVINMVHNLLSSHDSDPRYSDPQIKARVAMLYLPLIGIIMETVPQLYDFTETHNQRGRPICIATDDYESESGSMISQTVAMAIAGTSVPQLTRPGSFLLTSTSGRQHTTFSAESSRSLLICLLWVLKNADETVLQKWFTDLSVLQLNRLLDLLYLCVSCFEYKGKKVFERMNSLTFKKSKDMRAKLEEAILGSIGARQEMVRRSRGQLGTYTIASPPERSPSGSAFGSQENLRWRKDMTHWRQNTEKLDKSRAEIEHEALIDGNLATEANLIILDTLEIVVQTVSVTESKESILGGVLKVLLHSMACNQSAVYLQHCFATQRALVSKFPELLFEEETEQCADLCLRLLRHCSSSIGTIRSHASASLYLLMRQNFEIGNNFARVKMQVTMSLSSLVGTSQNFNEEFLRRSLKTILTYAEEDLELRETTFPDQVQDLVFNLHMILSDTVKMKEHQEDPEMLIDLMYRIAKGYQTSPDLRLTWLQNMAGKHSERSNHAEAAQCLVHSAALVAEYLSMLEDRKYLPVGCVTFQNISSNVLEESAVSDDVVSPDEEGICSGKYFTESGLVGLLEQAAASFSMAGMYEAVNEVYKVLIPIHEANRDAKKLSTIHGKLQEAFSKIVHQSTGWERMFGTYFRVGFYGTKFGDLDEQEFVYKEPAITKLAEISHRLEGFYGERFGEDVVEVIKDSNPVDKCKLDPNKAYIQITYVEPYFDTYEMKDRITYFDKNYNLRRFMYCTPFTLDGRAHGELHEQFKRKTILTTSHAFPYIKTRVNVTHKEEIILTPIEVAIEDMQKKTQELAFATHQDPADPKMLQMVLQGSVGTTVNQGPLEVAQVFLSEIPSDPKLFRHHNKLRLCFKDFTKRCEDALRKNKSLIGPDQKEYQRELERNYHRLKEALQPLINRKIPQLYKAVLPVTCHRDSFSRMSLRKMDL
UniProt Q96H35: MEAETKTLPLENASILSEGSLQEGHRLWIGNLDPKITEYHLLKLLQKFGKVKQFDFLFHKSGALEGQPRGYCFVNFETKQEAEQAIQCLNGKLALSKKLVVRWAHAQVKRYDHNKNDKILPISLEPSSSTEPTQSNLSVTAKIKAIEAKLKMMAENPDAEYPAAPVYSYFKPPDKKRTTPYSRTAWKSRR
UniProt Q96II8: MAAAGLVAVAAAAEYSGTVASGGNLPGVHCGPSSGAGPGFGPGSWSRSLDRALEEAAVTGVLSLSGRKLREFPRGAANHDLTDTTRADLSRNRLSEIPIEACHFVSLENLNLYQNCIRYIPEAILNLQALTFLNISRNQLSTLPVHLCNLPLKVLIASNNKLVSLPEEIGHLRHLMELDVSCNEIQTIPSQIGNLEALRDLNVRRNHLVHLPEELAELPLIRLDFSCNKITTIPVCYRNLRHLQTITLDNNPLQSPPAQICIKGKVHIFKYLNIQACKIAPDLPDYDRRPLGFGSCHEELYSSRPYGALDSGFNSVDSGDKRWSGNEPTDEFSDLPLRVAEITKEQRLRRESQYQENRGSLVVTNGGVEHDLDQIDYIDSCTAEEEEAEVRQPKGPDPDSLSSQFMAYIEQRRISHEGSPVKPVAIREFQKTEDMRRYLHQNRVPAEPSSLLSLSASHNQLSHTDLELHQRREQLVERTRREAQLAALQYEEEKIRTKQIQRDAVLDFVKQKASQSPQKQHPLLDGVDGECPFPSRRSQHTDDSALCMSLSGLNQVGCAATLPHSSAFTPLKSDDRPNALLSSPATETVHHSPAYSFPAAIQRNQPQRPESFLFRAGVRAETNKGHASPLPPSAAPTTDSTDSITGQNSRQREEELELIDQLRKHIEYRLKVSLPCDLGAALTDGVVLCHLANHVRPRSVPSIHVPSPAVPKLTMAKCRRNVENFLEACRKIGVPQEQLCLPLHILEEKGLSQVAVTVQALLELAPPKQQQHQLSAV
UniProt Q96ME1: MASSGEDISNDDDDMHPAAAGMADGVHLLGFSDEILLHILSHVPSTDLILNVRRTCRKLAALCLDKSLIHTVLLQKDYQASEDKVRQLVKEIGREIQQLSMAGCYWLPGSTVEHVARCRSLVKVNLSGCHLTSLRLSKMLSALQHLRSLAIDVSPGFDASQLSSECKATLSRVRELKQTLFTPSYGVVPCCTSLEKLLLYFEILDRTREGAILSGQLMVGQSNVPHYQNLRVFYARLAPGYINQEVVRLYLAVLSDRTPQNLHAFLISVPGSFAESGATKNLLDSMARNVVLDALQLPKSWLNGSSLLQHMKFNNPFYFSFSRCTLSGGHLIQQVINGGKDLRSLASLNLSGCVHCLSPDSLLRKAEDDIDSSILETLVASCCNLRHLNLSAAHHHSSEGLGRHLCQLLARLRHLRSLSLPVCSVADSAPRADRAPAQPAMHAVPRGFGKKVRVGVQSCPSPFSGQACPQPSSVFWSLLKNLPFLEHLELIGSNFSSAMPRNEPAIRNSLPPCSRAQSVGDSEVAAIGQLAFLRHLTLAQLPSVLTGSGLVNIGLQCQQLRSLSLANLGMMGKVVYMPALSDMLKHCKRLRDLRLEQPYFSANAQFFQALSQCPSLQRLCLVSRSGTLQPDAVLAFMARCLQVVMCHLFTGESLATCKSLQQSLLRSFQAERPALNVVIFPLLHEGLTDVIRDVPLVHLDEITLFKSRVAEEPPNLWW
UniProt Q96NM4: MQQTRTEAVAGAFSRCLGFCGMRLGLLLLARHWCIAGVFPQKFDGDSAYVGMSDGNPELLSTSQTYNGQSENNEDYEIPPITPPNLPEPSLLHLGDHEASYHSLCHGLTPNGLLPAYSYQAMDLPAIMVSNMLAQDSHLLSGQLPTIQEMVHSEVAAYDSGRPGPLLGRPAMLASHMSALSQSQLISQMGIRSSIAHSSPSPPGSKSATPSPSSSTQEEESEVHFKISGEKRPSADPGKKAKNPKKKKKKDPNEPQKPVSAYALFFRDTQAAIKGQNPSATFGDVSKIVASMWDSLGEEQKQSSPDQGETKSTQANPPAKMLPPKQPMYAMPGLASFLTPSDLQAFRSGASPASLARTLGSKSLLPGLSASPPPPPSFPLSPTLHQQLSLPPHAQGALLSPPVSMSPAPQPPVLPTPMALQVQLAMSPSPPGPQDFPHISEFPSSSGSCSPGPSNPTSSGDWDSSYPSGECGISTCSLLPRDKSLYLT
UniProt Q96IU4: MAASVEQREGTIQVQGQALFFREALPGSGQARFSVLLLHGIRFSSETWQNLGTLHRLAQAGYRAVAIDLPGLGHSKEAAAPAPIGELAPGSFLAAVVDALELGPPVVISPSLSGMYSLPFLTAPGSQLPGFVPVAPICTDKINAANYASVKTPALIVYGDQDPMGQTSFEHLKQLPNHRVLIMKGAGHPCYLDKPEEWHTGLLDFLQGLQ
UniProt Q96LB3: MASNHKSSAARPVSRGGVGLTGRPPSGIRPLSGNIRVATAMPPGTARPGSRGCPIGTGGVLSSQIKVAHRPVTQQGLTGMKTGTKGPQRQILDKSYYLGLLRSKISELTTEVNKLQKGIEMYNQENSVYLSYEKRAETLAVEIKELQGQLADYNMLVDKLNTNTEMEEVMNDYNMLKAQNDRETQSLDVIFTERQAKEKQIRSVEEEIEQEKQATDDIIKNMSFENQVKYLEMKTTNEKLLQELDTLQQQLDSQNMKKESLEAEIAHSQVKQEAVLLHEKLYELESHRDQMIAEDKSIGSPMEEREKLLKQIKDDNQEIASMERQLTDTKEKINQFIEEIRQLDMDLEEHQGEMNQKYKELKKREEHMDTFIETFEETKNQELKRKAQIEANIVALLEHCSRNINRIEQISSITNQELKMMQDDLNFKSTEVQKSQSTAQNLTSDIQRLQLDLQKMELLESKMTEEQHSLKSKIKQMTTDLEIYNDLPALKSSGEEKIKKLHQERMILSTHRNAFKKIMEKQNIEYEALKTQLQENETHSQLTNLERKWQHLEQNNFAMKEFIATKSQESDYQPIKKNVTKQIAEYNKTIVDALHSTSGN
UniProt Q96HJ9: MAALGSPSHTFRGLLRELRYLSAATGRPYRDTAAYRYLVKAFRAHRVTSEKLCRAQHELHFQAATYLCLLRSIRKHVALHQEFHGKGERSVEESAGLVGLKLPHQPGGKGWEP
UniProt Q96NB1: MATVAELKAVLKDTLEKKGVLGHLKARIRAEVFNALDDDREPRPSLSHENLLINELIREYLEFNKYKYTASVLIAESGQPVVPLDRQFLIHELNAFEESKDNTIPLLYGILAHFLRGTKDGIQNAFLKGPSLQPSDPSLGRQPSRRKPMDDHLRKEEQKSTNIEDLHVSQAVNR

Target | log2 fold change
RNF2 (peptide sequence: SKGESNQMNLDTASEK, peptide start residue: 274) (UniProt Q99496) | 0.198
UniProt Q96PG8 (peptide sequence: DGAQLGACTRPVDVR, peptide start residue: 224) | -0.193
NMNAT3 (peptide sequence: FGLVCVGR, peptide start residue: 160) (UniProt Q96T66) | -0.158
PSMB7 (peptide sequence: NAVLEADFAKR, peptide start residue: 22) (UniProt Q99436) | 0.549
SLC35E1 (peptide sequence: QSYPNSYSLNR, peptide start residue: 397) (UniProt Q96K37) | -0.247
APIP (peptide sequence: HGDEIYIAPSGVQK, peptide start residue: 52) (UniProt Q96GX9) | 0.145
PCMTD1 (peptide sequence: LPLPESLK, peptide start residue: 341) (UniProt Q96MG8) | 0.43
DOCK7 (peptide sequence: DSNPVDKCK, peptide start residue: 1895) (UniProt Q96N67) | -0.157
UniProt Q96TC7 (peptide sequence: AIALQPENPMAHFLLGR, peptide start residue: 355) | -0.0717
RBM18 (peptide sequence: ITEYHLLK, peptide start residue: 36) (UniProt Q96H35) | 0.49
IPO9 (peptide sequence: WTNIPLLVK, peptide start residue: 908) (UniProt Q96P70) | 0.231
DHRS1 (peptide sequence: EEVLQDPVLK, peptide start residue: 208) (UniProt Q96LJ7) | -0.553
UniProt Q96HE7 (peptide sequence: FDGILTEGEGPRR, peptide start residue: 288) | 0.524
LRCH3 (peptide sequence: WSGNEPTDEFSDLPLR, peptide start residue: 323) (UniProt Q96II8) | -0.704
VCPIP1 (peptide sequence: QHFQQHLAR, peptide start residue: 244) (UniProt Q96JH7) | 0.337
FBXL18 (peptide sequence: CTLSGGHLIQQVINGGK, peptide start residue: 324) (UniProt Q96ME1) | 0.417
SECISBP2 (peptide sequence: HIIHPTQK, peptide start residue: 356) (UniProt Q96T21) | 0.289
UniProt Q96NM4 (peptide sequence: DPNEPQKPVSAYALFFR, peptide start residue: 219) | 0.103
ABHD14B (peptide sequence: AVAIDLPGLGHSK, peptide start residue: 64) (UniProt Q96IU4) | 0.262

Target | log2 fold change
IFT74 (peptide sequence: VATAMPPGTARPGSR, peptide start residue: 37) (UniProt Q96LB3) | -0.373
UHRF2 (peptide sequence: VQVSEAGVHRPHVGGIHGR, peptide start residue: 463) (UniProt Q96PU4) | -0.538
SGSM3 (peptide sequence: QTELVADLR, peptide start residue: 428) (UniProt Q96HU1) | 0.266
METTL2A (peptide sequence: DYGRYDMAQLR, peptide start residue: 292) (UniProt Q96IZ6) | 0.503
UniProt Q96J66 (peptide sequence: SSLGMALFR, peptide start residue: 1234) | -0.0555
ELMO2 (peptide sequence: ALPSKPNSLDQFK, peptide start residue: 484) (UniProt Q96JJ3) | -0.483
FMC1 (peptide sequence: AALGSPSHTFR, peptide start residue: 2) (UniProt Q96HJ9) | 0.216
PHF12 (peptide sequence: FQDTVSQHVVK, peptide start residue: 341) (UniProt Q96QT6) | -0.605
NEDD4L (peptide sequence: KPADIPNRFEMK, peptide start residue: 610) (UniProt Q96PU5) | 0.397
RILP (peptide sequence: FSREEFEQILQERNELK, peptide start residue: 243) (UniProt Q96NA2) | -0.527
FAM193B (peptide sequence: AQLAAEALK, peptide start residue: 510) (UniProt Q96PV7) | -0.193
VPS35 (peptide sequence: QIVLTGILEQVVNCR, peptide start residue: 240) (UniProt Q96QK1) | 0.226
CRBN (peptide sequence: CQIFPSKPVSR, peptide start residue: 205) (UniProt Q96SW2) | 0.0711
INPP4A (peptide sequence: EIIAQINTLK, peptide start residue: 413) (UniProt Q96PE3) | -0.657
UniProt Q96PE1 (peptide sequence: GGGALEK, peptide start residue: 1282) | 0.165
UniProt Q96NB1 (peptide sequence: STNIEDLHVSQAVNR, peptide start residue: 160) | -0.126
USP47 (peptide sequence: FLEVDEYPEHIK, peptide start residue: 572) (UniProt Q96K76) | 0.29
UniProt Q96NG3 (peptide sequence: SEGEASLYEDR, peptide start residue: 507) | 0.0184

From the supplement of paper PMC12819154, “High-throughput peptide-centric local stability assay extends protein–ligand identification to membrane proteins, tissues and bacteria” (Nature Structural & Molecular Biology, 2025)
